This passage reports binding results from patent US20200277346A1.

The chains behind the UniProt entries cited, without tags or fusion partners. Residues count along the entry.
UniProt Q96J02, residues 524-903: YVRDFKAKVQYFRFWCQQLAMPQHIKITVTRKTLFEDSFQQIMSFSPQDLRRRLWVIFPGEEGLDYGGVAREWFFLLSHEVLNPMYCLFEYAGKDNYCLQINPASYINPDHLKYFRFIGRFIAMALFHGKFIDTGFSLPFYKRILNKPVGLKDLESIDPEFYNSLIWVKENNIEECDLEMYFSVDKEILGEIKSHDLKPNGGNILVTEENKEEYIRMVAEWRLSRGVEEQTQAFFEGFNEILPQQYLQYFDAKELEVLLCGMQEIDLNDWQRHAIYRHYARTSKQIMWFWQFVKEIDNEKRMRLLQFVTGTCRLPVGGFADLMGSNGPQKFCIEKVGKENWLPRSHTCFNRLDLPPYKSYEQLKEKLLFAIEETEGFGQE

No constants are given. Whether binding was seen depends on the method and setting. Some results given as binding are weak or reduced against the parent protein; the word gives no strength.

Holding throughout (assay): phage selection; ELISA EC50 on immobilized cognate HECT domain (Table 4, not given)
In assay [1] the target is T1, HECTD1 HECT domain (human) (UniProt Q9ULT8).
T1 sequence (looked up): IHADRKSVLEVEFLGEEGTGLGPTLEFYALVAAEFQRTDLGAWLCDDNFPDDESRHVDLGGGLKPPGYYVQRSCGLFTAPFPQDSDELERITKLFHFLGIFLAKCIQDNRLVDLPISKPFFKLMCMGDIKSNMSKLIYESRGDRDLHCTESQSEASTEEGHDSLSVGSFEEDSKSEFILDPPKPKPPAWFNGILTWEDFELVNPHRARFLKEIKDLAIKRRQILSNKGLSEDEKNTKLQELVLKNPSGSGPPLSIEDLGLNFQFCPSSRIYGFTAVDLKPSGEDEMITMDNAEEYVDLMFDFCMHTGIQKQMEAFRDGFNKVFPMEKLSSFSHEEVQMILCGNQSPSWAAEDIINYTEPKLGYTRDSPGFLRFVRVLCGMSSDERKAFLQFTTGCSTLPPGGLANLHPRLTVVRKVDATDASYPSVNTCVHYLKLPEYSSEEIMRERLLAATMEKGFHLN

The target of assay [2] is ITCH HECT domain (human) (UniProt Q96J02).
For assay [3], the target named is T2, EDD1 HECT domain (human) (UniProt O95071).
T2 sequence (looked up): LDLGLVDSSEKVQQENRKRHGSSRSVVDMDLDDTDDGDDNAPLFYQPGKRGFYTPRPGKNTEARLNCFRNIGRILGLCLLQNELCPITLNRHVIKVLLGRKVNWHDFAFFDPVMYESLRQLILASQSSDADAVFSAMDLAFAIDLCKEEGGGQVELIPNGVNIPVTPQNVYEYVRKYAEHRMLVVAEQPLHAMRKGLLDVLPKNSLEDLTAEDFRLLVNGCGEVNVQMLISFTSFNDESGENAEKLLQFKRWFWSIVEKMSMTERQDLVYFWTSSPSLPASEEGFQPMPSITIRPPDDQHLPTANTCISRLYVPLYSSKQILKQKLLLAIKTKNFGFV

B1: Ubv.D1.4 (designed binder)
chain: MAILVKTVTGNSITLEVEPSDTIENVKAKIQDKEGIPPDQQGLLFARTRLEDGRTLSDYNIQKASTLHLVRTLRGTDT
As for B1, the binding entry in assay [1] is given as “binds”.

B2: Ubv.D1.3 (designed binder)
chain: MQIFVKTVSGKTINLEVEPSDTIENVKAKIQDKEGIPPDQQGLIFARKRLEDGRTLSDYNIQDESNLHLVLTLVGRNL
As for B2, the binding result in assay [1] is “binds”.

B3: Ubv.IT.4 (designed binder)
chain: MQIFVKTLTGLSITTLEVEPSDTIENVKAKIQDKEGIPPDQQILIFGGKRLEDGRTLSDYNIQKKSSLYLLMRLRGVSR
B3: the binding result in assay [2] was “binds”.

B4: Ubv.ED.7 (designed binder)
chain: MQISVVTLTRPTITLEVEPSDTIENVKAKIQDKEGIPPDQQRLIFAGRDLEDGRTLSDYNIQKQSSLHLFFRLRGSVS
For B4, the binding result in assay [3] is on record as “binds”.

B5: Ubv.ED.3 (designed binder)
chain: MSIFVITFTRKPITLEVEPSDTIENVKAKIQDKEGIPPDQQILIFAGKKLEDGRTLSDYNIQKESSLYLFLRLRGAKV
As to B5, the binding entry in assay [3] is on record as “binds”.

B6: Ubv.D1.2 (designed binder)
chain: MQILVRTLTGKTIRLEVEPSDTIENVKAKIQDKEGIPPDQQRLIFAGMRLEDGRTLSDYNIQGFSPLGLVLRLLRVEL
For the molecule B6, the binding result in assay [1] is on record as “binds”.
